# Test results as given in PubChem BioAssay AID2284369 (EPA ToxCast).
# The entries are a selection whose mix differs from that of the whole data set. Records with an inconclusive call do not appear. Calls of active or inactive are those of the source. Rule for the calls: active = hit-call score of the fitted dose curve at least 0.9, where 1 is the maximum; inconclusive = response in the unintended direction; inactive = score below 0.9.
# Test system: frog Estrogen Receptor (ER1), gene 398734
# Assay: ATG_frER1_EcoTox2: Attagene TRANS-FACTORIAL EcoTox-2 HepG2 Assay for frog Estrogen Receptor (ER1)
# Method: ATG_EcoTox2 is a cell-based, multiplexed assay created by modifying the existing Attagene TRANS-FACTORIAL system to include a panel of nuclear receptors from some or all the following species: human (Homo sapiens), african clawed frog (Xenopus laevis), rainbow trout (Oncorhynchus mykiss), japanese medaka (Oryzias latipes), and zebrafish (Danio rerio). The ECOTOX2-FACTORIAL format uses HepG2, a human liver cell line, with measurements taken at 24 hours after chemical dosing in a 24-well plate. ATG_frER1_EcoTox2 is one of 29 assay components calculated in the ATG_EcoTox2 assay. It is designed to make measurements of mRNA induction, a form of inducible reporter, as detected with fluorescence intensity signals by Reverse transcription polymerase chain reaction (RT-PCR) and Capillary electrophoresis technology.The assay endpoint ATG_frER1_EcoTox2 was analyzed in the positive analysis fitting direction relative to DMSO as the negative control and baseline of activity. Using a type of inducible reporter, measures of mRNA for gain-of-signal activity can be used to understand the reporter gene at the transcription factor-level as they relate to the gene ER. Furthermore, this assay endpoint can be referred to as a primary readout, because this assay has produced multiple assay endpoints where this one serves a reporter gene function. […]
structure (smiles),measurement,value
CC(C)(Oc1ccc(Cl)cc1)C(=O)O,outcome,inactive
